Measured values as given in PubChem BioAssay AID2685 (National Center for Advancing Translational Sciences (NCATS), 2010).
The list shows a part of the results. These are further read-outs of the screen, such as a control signal, another cell line or another target. No call is given for them. The list favours compounds with an active or inconclusive main result. Potencies come from curve fits of mixed quality, noted in brackets.

Test: qHTS Assay for Lipid Storage Modulators in Drosophila S3 Cells;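 for cell number change: cells counted by Cell Tracker Red CMTPX staining in the red channel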
Settings: BODIPY lipid droplet fluorescence, 18-24 h; for cell number change: measured here: cell count max response, cells fed with added oleic acid
In short: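 Drosophila S3 cells loaded with oleic acid (400 uM, as added) and compounds at several concentrations; lipid droplets imaged by 488-nm laser-scanning cytometry, 500–530 nm intensity and object ratio to cell channel. Percent activity normalized to 20 uM Triacsin C.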

[1] = measured here: lipid fluorescence (Fed channel) AC50, cells fed with added oleic acid
[2] = measured here: cell number channel AC50, cells fed with added oleic acid

Compound | cell number change [%] | AC50 [1] | AC50 [2]
O=C(O)CSCC(=O)N1CCCCC1 | -8.27 | 1.3 µM [falling, full curve, poor fit] | 
O=C(CNCc1ccccc1)NCCCN1CCCC1=O | 28.9 |  | 4.61 µM [rising, full curve, poor fit]
COc1ccc(CNC(=O)COC(=O)CCc2c[nH]c3ccccc23)cc1 | -6.46 | 4.61 µM [falling, single point] | 2.59 µM [falling, single point]
Cc1ccc(C(c2nnnn2CCC(C)C)N2CCN(C)CC2)cc1 (stereo not drawn) | -57.4 |  | 16.4 µM [falling, single point]
Cc1ccc(S(C)(=O)=O)cc1C(=O)Nc1ccc(S(=O)(=O)Nc2nccs2)cc1 | 16.9 | 29.1 µM [rising, single point] | 
Cc1ccc(NC(=O)c2ccc(NCCN)c([N+](=O)[O-])c2)cc1 | -24 |  | 0.82 µM [rising, full curve]
COc1ccc(CCNC(=O)CCNC(=O)c2ccco2)cc1OC | -12.7 | 6.51 µM [falling, single point] | 
Cc1cnc(NC(=O)c2cc3c(C)nn(-c4ccccc4)c3s2)s1 |  | 0.651 µM [rising, partial curve, poor fit] | 0.259 µM [rising, full curve]
CCOC(=O)Nc1cc(OCC)c(NC(=O)C2CC2)cc1OCC | -0.625 |  | 
COc1cccc(C2N(c3cccc(Cl)c3)C(=O)C3CCCN32)c1 (stereo not drawn) | 56.7 |  | 25.9 µM [rising, single point]
CCCC1(c2ccccc2)NC(=O)N(CC(=O)N(C)Cc2c(F)cccc2Cl)C1=O (stereo not drawn) | 21.7 |  | 
CCOC(=O)c1ccc(S(=O)(=O)N2CCN(CC(=O)NC(=O)NC(C)(C)C)CC2)cc1 | 25 |  | 
Cc1cc2c(=O)n(Cc3ccco3)c(SCC(=O)NCc3ccco3)nc2s1 | 35.8 | 6.51 µM [rising, single point] | 4.61 µM [rising, full curve]
COc1cc(C(=O)Nc2ccccc2N2CCN(S(C)(=O)=O)CC2)cc(OC)c1OC | 6.12 | 29.1 µM [rising, single point] | 
CCOC(=O)N1CCN(C(=O)c2ccc3c(c2)N(C)C(=O)/C(=C\c2ccc(OCC)c(OC)c2)S3)CC1 | -0.33 | 2.31 µM [falling, partial curve] | 
COc1ccc(CCN(C)c2ccc(S(=O)(=O)N3CCCC3)cc2[N+](=O)[O-])cc1OC | 16.5 | 0.146 µM [rising, partial curve, poor fit] | 
COc1ccc(C2=NS(=O)(=O)N(C)C(C(=O)NC3CCCCC3)=C2)cc1OC | -8.36 |  | 
CN(C)C(=S)Nc1ccc2c(c1)OCO2 | 11.9 | 0.092 µM [falling, full curve, poor fit] | 
Cc1cc(Cl)ccc1OCC(=O)NNC(=O)C1CSC2(C)CCC(=O)N12 (stereo not drawn) | -2.41 |  | 
Cc1cc(C)n(-c2ccc(C(=O)Nc3ccc(S(=O)(=O)N(C)C)cc3)cc2)n1 | 12.7 | 4.61 µM [rising, partial curve, poor fit] | 

Pulled by structure from the entries so far:
Compound | cell number change [%] | AC50 [1] | AC50 [2]
COc1ccc(CNC(=O)COC(=O)CCc2c[nH]c3ccccc23)cc1 | -6.46 | 4.61 µM [falling, single point] | 2.59 µM [falling, single point]
Cc1ccc(C(c2nnnn2CCC(C)C)N2CCN(C)CC2)cc1 (stereo not drawn) | -57.4 |  | 16.4 µM [falling, single point]
O=C(CNCc1ccccc1)NCCCN1CCCC1=O | 28.9 |  | 4.61 µM [rising, full curve, poor fit]

Following part

Compound | cell number change [%] | AC50 [1] | AC50 [2]
COc1cc2c(C(=O)NCc3ccc4c(c3)OCO4)cn(C)c(=O)c2cc1OC | 8.09 | 20.6 µM [rising, single point] | 
CCOC(=O)c1cc(-c2ccccc2C)n(CC2CC(c3cccc([N+](=O)[O-])c3)=NO2)n1 (stereo not drawn) | 9.31 | 4.11 µM [rising, single point] | 
O=C(CCl)Nc1cc(-c2ccccc2)nn1-c1ccccc1 | -128 | 18.4 µM [falling, partial curve] | 18.4 µM [falling, single point]
COc1ccc(C)cc1NC(=O)c1ccc2c(c1)OCO2 | -7.71 | 0.103 µM [rising, full curve, poor fit] | 
c1ccc(CSCCc2ccncc2)cc1 |  | 18.4 µM [rising, partial curve] | 6.51 µM [rising, single point]
CCCSc1nnc(-c2ccccc2N)c(=O)[nH]1 | -1.15 | 0.58 µM [falling, single point] | 
O=C(COC(=O)Cc1ccc(S(=O)(=O)N2CCOCC2)s1)NCCc1ccccc1 | 20.7 | 29.1 µM [rising, single point] | 
Cc1nnc(SCC(=O)NC2CCCC2)n1CCc1ccccc1 | 10.3 |  | 
Cc1ccc(S(=O)(=O)NCCC(=O)Nc2cc(S(=O)(=O)N(C)C)ccc2C)cc1C | -3.95 | 35.5 µM [falling, single point] | 
Cc1cccc(-n2c(C)cc(/C=N/n3cnnc3)c2C)c1 | -23.5 | 1.64 µM [falling, partial curve] | 
Cc1cccc(N2CCN(C(=O)NCc3ccc(F)cc3)CC2)c1C | -2.25 | 29.1 µM [rising, single point] | 
CN(CCc1nc2ccc(Cl)cc2[nH]1)Cc1nc(CC2CC2)no1 | 6.53 | 20.6 µM [rising, single point] | 
O=C1NC(=O)c2cc(NC(=O)c3cccc4ccccc34)ccc21 | 34.4 |  | 
CC(C)c1ccccc1OCC(=O)NN1C(=O)c2ccccc2C1=O | -10.8 |  | 
CCOc1ccccc1CNC(=O)CCN1C(=O)COc2ccccc21 |  | 2.91 µM [rising, single point] | 
Cc1cccc(NC2(C(F)(F)F)N=C3SCCN3C2=O)n1 (stereo not drawn) | -16.1 | 8.2 µM [falling, partial curve] | 0.731 µM [falling, full curve, poor fit]
Cc1ccc(-c2ccc(=O)n(CC(=O)NCCCN3CCCCC3C)n2)cc1 (stereo not drawn) | -36.9 | 18.4 µM [falling, single point] | 23.1 µM [falling, single point]
COc1ccc(C(CNC(=O)CNC(=O)c2cc(OC)c(OC)c(OC)c2)N2CCOCC2)cc1 (stereo not drawn) | 0.641 |  | 
CCc1ccc(CN2CCC(n3nccc3NC(=O)c3cccc(F)c3)CC2)cc1 | 24.5 | 0.731 µM [rising, full curve, poor fit] | 
Cc1ccc(S(=O)(=O)N2CCCCC2)cc1NC(=O)CNc1ccc(C(F)(F)F)cc1 | 51 | 18.4 µM [rising, partial curve] | 20.6 µM [rising, single point]

Compound | cell number change [%] | AC50 [1] | AC50 [2]
O=C(O)c1ccc(NC(=S)NC(NC(=O)c2ccco2)C(Cl)(Cl)Cl)cc1 (stereo not drawn) | -86.7 | 0.13 µM [falling, full curve, poor fit] | 16.4 µM [falling, partial curve]
CCOc1ccc(NC(=O)CSc2nc3c(c(=O)n2C)SC(C)C3)cc1 (stereo not drawn) |  | 0.116 µM [rising, full curve, poor fit] | 1.84 µM [rising, partial curve, poor fit]
Cc1cc(C(=O)NCC2COc3ccccc3O2)c2ccccc2n1 (stereo not drawn) | 20.5 |  | 
CC(C)N(CC#CCC(O)(c1ccccc1)c1ccccc1)CCO | 1.91 | 0.116 µM [falling, full curve, poor fit] | 
COc1cc(/C=C/C(=O)NNC(=O)c2cccc(S(=O)(=O)N(C)C)c2)cc(OC)c1OC | 0.803 |  | 
CCOC(=O)c1cc(CC)sc1NC(=O)c1cc([N+](=O)[O-])ccc1N1CCOCC1 | 18 | 6.51 µM [rising, single point] | 
S=c1[nH]nc(Cn2nnc3ccccc32)n1-c1ccccc1 | 7.05 |  | 
Cc1sc2ncnc(N3CCN(CCOc4ccc(Cl)cc4)CC3)c2c1C |  | 2.06 µM [rising, partial curve] | 
CCN(CC)CCn1c(=S)[nH]c2cc(C(=O)NCc3ccccc3Cl)ccc2c1=O |  | 4.61 µM [falling, partial curve] | 
O=[N+]([O-])c1cc(C(F)(F)F)ccc1NN=C1CCCC1 | 121 |  | 20.6 µM [rising, partial curve, poor fit]
CN(C)S(=O)(=O)Oc1ccccc1C(=O)Nc1ccccc1Cl | 146 | 3.66 µM [falling, partial curve] | 29.1 µM [rising, single point]
CC1(C)CCC[C@]2(C)[C@H]3CC(=O)O[C@]3(C)CC[C@@H]12 | -4.17 | 0.082 µM [falling, partial curve, poor fit] | 
CC(=O)c1sc(Nc2nc3cc4c(cc3s2)OCO4)nc1C | 3.12 | 0.164 µM [rising, full curve, poor fit] | 
CCOC(=O)c1ccc(OS(=O)(=O)c2ccccc2)c(OC)c1 | 20.8 | 0.259 µM [rising, full curve] | 
CCn1c(Cc2ccc(OC)cc2)nnc1SCC(=O)NC1CCCCC1 | 6.14 | 0.651 µM [falling, partial curve] | 
CCn1c(SCC(=O)Nc2ccccc2C)nnc1-c1ccccc1O | 72 | 8.2 µM [rising, partial curve] | 7.31 µM [rising, partial curve]
COc1cccc(CNC(=O)CN2c3cccc4cccc(c34)S2(=O)=O)c1 |  |  | 2.31 µM [rising, partial curve, poor fit]
COc1cc(C(N)=O)cc(Br)c1OC | -4.56 |  | 0.13 µM [falling, full curve, poor fit]
CCOC(=O)C(NC(=O)CC(C)C)(Nc1sc2c(c1C(N)=O)CCCC2)C(F)(F)F (stereo not drawn) | -60.6 | 5.8 µM [falling, partial curve] | 5.8 µM [falling, partial curve, poor fit]
O=C(C[n+]1cccc(Br)c1)c1ccc(-c2ccccc2)cc1 |  |  | 6.51 µM [rising, single point]
